This assay concerns the target T1, Atox1 (Homo sapiens, UniProt O00244).
T1 chain: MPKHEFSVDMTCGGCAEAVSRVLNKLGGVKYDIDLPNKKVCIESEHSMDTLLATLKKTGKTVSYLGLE
Nature of the assay: SEC; Atox1 (50 µM) loaded with Cu(I) in a 1:1 ratio, then mixed with apo Memo1 (20 µM); absorbance at 255 and 280 nm; both purified. A general note: Size exclusion chromatography separates by hydrodynamic size, large species first.

Experimental findings from PMC9477392 (2022) are described below.

Results are given in words; binding and its absence hold for the method and conditions named.

B1: mediator of ERBB2-driven cell motility 1 (Memo1) (protein, UniProt Q9Y316 4-297)
chain: RVVCREASHAGSWYTASGPQLNAQLEGWLSQVQSTKRPARAIIAPHAGYTYCGSCAAHAYKQVDPSITRRIFILGPSHHVPLSRCALSSVDIYRTPLYDLRIDQKIYGELWKTGMFERMSLQTDEDEHSIEMHLPYTAKAMESHKDEFTIIPVLVGALSESKEQEFGKLFSKYLADPSNLFVVSSDFCHWGQRFRYSYYDESQGEIYRSIEHLDKMGMSIIEQLDPVSFSNYLKKYHNTICGRHPIGVLLNAITELQKNGMNMSFSFLNYAQSSQCRNWQDSSVSYAAGALTVH
Regarding B1, the binding result is “no binding (tested: 50 µM Cu(I)-Atox1, 20 µM apo Memo1)”.
